Data published in article PMC3599385.
No constants are given. Whether binding was seen depends on the method and setting. Binding seen in cells or lysates may run through a third protein. A result given as binding can be weak or reduced; the word gives no strength. Tags and fused reporters may be left off the sequences shown.

Target: MBP:SUB (full length STRUBBELIG fused to maltose-binding protein) (Arabidopsis thaliana)
Experiment: pull-down; MBP-tagged proteins held on amylose resin, incubated with equal amounts of GST:AN lysate for 4 hours at 4°C; western blot with anti-AN antibody; only the target purified

binding: binds
B1: GST:AN (fusion of glutathione-S-transferase to ANGUSTIFOLIA) (protein, UniProt O23702 1-636)
chain: MSKIRSSATMPHRDQPSPASPHVVTLNCIEDCALEQDSLAGVAGVEYVPLSRIADGKIESATAVLLHSLAYLPRAAQRRLRPHQLILCLGSADRAVDSTLAADLGLRLVHVDTSRAEEIADTVMALILGLLRRTHLLSRHALSASGWLGSLQPLCRGMRRCRGMVLGIVGRSVSARYLASRSLAFKMSVLYFDVPEGDEERIRPSRFPRAARRMDTLNDLLAASDVISLHCALTNDTVQILNAECLQHIKPGAFLVNTGSCQLLDDCAVKQLLIDGTIAGCALDGAEGPQWMEAWVKEMPNVLILPRSADYSEEVWMEIREKAISILHSFFLDGVIPSNTVSDEEVEESEASEEEEQSPSKHEKLAIVESTSRQQGESTLTSTEIVRREASELKESLSPGQQHVSQNTAVKPEGRRSRSGKKAKKRHSQQKYMQKTDGSSGLNEESTSRRDDIAMSDTEEVLSSSSRCASPEDSRSRKTPLEVMQESSPNQLVMSSKKFIGKSSELLKDGYVVALYAKDLSGLHVSRQRTKNGGWFLDTLSNVSKRDPAAQFIIAYRNKDTVGLRSFAAGGKLLQINRRMEFVFASHSFDVWESWSLEGSLDECRLVNCRNSSAVLDVRVEILAMVGDDGITRWID
